Source: doi:10.1101/2023.04.24.538075 (bioRxiv, 2023)
Results are given in words; binding and its absence hold for the method and conditions named.

Amino acid sequences for entries named in this document (tags omitted).
UniProt P19073: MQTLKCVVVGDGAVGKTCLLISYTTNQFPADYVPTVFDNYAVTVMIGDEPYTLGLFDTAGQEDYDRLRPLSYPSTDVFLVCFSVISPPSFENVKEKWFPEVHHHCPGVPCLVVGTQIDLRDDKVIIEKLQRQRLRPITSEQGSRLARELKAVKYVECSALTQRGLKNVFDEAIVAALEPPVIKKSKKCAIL

Key:
[1] = target: H-SS-Cdc42-F (S. cerevisiae) (UniProt P19073); experiment: SDS-Page with Western blot
H-Bem1-F (S. cerevisiae) = target: T1, H-Bem1-F (S. cerevisiae) (UniProt P29366); experiment: pull-down
T1 sequence: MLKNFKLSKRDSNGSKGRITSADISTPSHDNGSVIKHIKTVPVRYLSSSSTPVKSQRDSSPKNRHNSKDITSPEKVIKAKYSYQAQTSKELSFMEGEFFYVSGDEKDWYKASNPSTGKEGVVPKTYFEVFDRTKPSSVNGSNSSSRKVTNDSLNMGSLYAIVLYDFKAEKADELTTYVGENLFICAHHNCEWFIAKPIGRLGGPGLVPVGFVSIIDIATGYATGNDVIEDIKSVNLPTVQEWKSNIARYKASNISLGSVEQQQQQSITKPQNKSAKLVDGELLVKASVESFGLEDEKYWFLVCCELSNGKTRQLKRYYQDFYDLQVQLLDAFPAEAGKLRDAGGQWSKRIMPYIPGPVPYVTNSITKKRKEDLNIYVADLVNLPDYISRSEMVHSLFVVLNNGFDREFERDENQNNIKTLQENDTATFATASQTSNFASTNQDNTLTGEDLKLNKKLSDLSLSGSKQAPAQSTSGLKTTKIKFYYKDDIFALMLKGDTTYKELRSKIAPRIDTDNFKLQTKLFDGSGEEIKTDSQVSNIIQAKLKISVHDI

[2] = target: SS-Cdc42-H (S. cerevisiae) (UniProt P19073); experiment: SDS-Page with Western blot

## H-SS-Cdc42-F (from UniProt P19073 1-191)
[1]
  binding: no binding

## Ovalbumin (from UniProt P01012 1-386)
H-Bem1-F (S. cerevisiae)
  binding: no binding

## SS-Cdc42-H (from UniProt P19073 1-191)
[2]
  binding: no binding
